From patent US10001489B2, “Method for constructing a novel affinity peptide library for binding immunoglobulin G based on a protein affinity model of protein A” (TIANJIN UNIVERSITY, priority 2012, dated 2018)
These are yes or no findings as the source states them, for the method shown. Some results given as binding are weak or reduced against the parent protein; the word gives no strength.

The chains behind the UniProt entries cited, without tags or fusion partners. Residues count along the entry.
UniProt P02769, residues 25-607: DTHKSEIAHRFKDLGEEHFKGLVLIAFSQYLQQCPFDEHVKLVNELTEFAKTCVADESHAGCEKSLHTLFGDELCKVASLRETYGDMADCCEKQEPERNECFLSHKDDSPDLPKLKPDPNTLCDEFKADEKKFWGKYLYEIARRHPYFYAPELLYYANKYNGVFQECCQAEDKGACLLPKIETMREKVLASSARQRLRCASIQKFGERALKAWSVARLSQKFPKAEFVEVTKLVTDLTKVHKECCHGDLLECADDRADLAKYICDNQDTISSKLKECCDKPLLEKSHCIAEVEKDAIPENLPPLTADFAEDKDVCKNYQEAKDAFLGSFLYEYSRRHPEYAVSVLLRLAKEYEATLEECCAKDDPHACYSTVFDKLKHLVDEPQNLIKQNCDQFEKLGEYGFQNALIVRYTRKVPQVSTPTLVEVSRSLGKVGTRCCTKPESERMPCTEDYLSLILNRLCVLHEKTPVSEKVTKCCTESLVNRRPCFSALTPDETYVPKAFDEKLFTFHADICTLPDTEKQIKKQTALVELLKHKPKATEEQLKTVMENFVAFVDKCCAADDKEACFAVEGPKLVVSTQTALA

Biological target: bovine serum albumin (bovine) (UniProt P02769)
Assay: affinity chromatography, peptide immobilized on Thiopropyl Sepharose 6B, pulse injection of protein

binding: binds
Binder: FYWHCLDE (Cys immobilized onto Thiopropyl Sepharose 6B gel via disulfide bond) [FYWHCLDE peptide ligand]
